Measurements: PubChem BioAssay AID1347076 (National Center for Advancing Translational Sciences (NCATS), 2019)
Values joined by “and” are separate entries in the source; they are usually repeats but may differ in a detail not shown here. Equal entries are not always repeated. The whole screen tested about 400,000 compounds, of which about 13,000 (3.2%) were called active. Inconclusive results, whose numbers are uncertain, are shown with a selection of clear calls. Calls come from the whole dose curve; as a rule, active = well fitted cell-killing curve with a large enough effect; inconclusive = small, poorly fitted or top-dose-only effect, or effect the other way; inactive = flat fitted curve, though single readings scatter. A potency beside an inconclusive call is a rough fit, not a confirmed value.

Assay: qHTS assay for MDR1-selective chemotherapeutics: Primary screen using the drug-selected MDR subline cells KB-V1; note: nearly all actives have a fitted effect of over 60% in size
Conditions: KB-V1 MDR cells viability, CellTiter-Glo, 72 h; series mostly up to 46.1 µM
In short: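 KB-V1 MDR subline cells in DMEM (phenol-red free, 10% FBS) exposed to compounds in qHTS concentration series for 72 h at 37 degrees C. Viability read by CellTiter-Glo luminescence; concentration-effect curves fitted after normalization and correction.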
Potency is the fitted concentration of half-maximal effect.

Structure (SMILES)	Potency
COc1cc(CNCc2cccs2)ccc1OCC(=O)NC(C)(C)C	inconclusive: 7.31 µM [cytotoxic, partial curve]
N#Cc1cc([N+](=O)[O-])cnc1NCC(O)CO (stereo not drawn)	inconclusive: 18.4 µM [rising, single point]
Cc1ccc(-c2nnc(NC(=O)C3=COCCO3)o2)c(C)c1	inconclusive: 18.4 µM [cytotoxic, partial curve, poor fit]
COC(CNC(=O)c1ccc2c(c1)nc(C)n2-c1ccc(F)c(F)c1)OC	inconclusive: 8.2 µM [cytotoxic, partial curve]
Cc1c(Cl)cccc1NC(=O)CSc1nc(=O)n(Cc2ccco2)c2c1CCC2	inconclusive: 29.1 µM [cytotoxic, single point]
O=C(CCSc1ccc(F)cc1)Nc1ccc(-n2cnnn2)cc1	inconclusive: 13 µM [cytotoxic, partial curve, poor fit]
Cn1c(-c2ccc3c(c2)OCO3)cnc1N	inconclusive: 23.1 µM [cytotoxic, partial curve, poor fit]
CN(CC(=O)Nc1ccncc1)S(=O)(=O)c1ccc(Br)cc1	active: 20.6 µM
O=C(CSc1nnc(-c2cccs2)o1)Oc1ccccc1Cl	inconclusive: 29.1 µM [rising, single point]
Cc1ccc(NC(=O)NNC(=O)C2CC(c3cccs3)=NO2)cc1 (stereo not drawn)	inconclusive: 29.1 µM [rising, single point]
COC(=O)c1c(C)[nH]c(C(C)=O)c1C	inconclusive: 7.31 µM [cytotoxic, partial curve, poor fit]
COc1cc(NS(=O)(=O)c2cn(C)cn2)cc(OC)c1OC	inactive
N#CC1(Nc2ccc(-c3ccc(NC4(C#N)CCCC4)cc3)cc2)CCCC1	inconclusive: 20.6 µM [cytotoxic, single point]
N#Cc1c(-c2ccccc2)nc(N2CCCCCC2)[nH]c1=O	inconclusive: 29.1 µM [cytotoxic, single point]
CC1CCc2c(sc3nc(CSc4n[nH]c(N)n4)[nH]c(=O)c23)C1 (stereo not drawn)	inactive
Cc1cccc(CSCc2ccc(C(=O)NC3CCCC3)o2)c1	inconclusive: 29.1 µM [rising, partial curve, poor fit]
O=C1[C@H]2[C@@H](c3ccccc3)N[C@]3(CCCN(Cc4ccccc4)C3=O)[C@H]2C(=O)N1Cc1ccccc1	inactive
O=C(Nc1nnc(SCC(=O)N2CCCCC2)s1)c1cccs1	active: 20.6 µM
CN(CC(=O)NCCc1ccc(F)cc1)CC(=O)Nc1ccc(F)c(F)c1F	inconclusive: 8.2 µM [cytotoxic, partial curve, poor fit]
O=C(NCCC1=CCCCC1)c1ccc(Cl)c(S(=O)(=O)Nc2ccccc2)c1	inconclusive: 29.1 µM [cytotoxic, single point]
CCN1CCN(C(c2cccs2)C(C)NS(=O)(=O)c2ccc(Br)cc2)CC1 (stereo not drawn)	active: 23.1 µM
COc1ccc(NC(=O)C(NS(=O)(=O)c2ccc3c(c2)CCCN3C(C)=O)C(C)C)c(OC)c1 (stereo not drawn)	inconclusive: 20.6 µM [cytotoxic, partial curve]
CC(=O)N1CCN(c2ccc(NC(=O)c3ccc4ccccc4c3)cc2)CC1	inconclusive: 4.11 µM [cytotoxic, partial curve]

Ordered by length of the SMILES (low to high): some entries from above.
Structure (SMILES)	Potency
O=C(Nc1nnc(SCC(=O)N2CCCCC2)s1)c1cccs1	active: 20.6 µM
COc1cc(CNCc2cccs2)ccc1OCC(=O)NC(C)(C)C	inconclusive: 7.31 µM [cytotoxic, partial curve]
Cc1ccc(NC(=O)NNC(=O)C2CC(c3cccs3)=NO2)cc1 (stereo not drawn)	inconclusive: 29.1 µM [rising, single point]
O=C(NCCC1=CCCCC1)c1ccc(Cl)c(S(=O)(=O)Nc2ccccc2)c1	inconclusive: 29.1 µM [cytotoxic, single point]

Additional results follow:

Structure (SMILES)	Potency
COc1ccc(C2C(=O)N(CCc3ccccc3)CC(=O)N2C2CCCC2)cc1 (stereo not drawn)	active: 3.66 µM
c1ccc(CN=C2NN=C(c3cc4ccccc4o3)CS2)cc1	inactive
Cc1cc(C(=O)N/N=C/c2ccc(Cl)c([N+](=O)[O-])c2)c(C)n1-c1ccc(F)cc1	inconclusive: 29.1 µM [cytotoxic, single point]
CCOc1cc(CNc2ccc3cn[nH]c3c2)ccc1OC	inconclusive: 29.1 µM [cytotoxic, partial curve, poor fit]
Cc1ccc2cc(CN(Cc3ccccc3)Cc3nnnn3C3CCCC3)c(=O)[nH]c2c1	inconclusive: 20.6 µM [cytotoxic, partial curve, poor fit]
COc1cc(C2c3cc4c(cc3OC(NCCc3ccccc3)C2C)OCO4)cc(OC)c1OC (stereo not drawn)	active: 2.91 µM
COc1cc(CNC(=O)c2ccc3c(c2)c(C)c(C)n3Cc2cccc(C)c2)cc(OC)c1OC	inactive
COc1cccc(Nc2nnc(SCc3nc4ccccc4s3)s2)c1	inconclusive: 23.1 µM [cytotoxic, single point]
CCn1c(CNC(=O)c2ccc(OC)c(OC)c2)nnc1SCC(=O)Nc1ccccc1	inactive
O=C(O)C1CCCN1c1nc(Cl)ccc1[N+](=O)[O-] (stereo not drawn)	inactive
CCN(CC(=O)NC1CCS(=O)(=O)C1)S(=O)(=O)c1ccc2ccccc2c1 (stereo not drawn)	inconclusive: 29.1 µM [cytotoxic, single point]
Cc1cccc(-n2cnc3cc(C(=O)NCCN4CCOCC4)ccc32)c1	inconclusive: 18.4 µM [cytotoxic, single point]
CCOC(=O)C[C@H]1c2ccccc2S(=O)(=O)N1c1ccccc1	inactive
Cc1ccc(C(=O)N(Cc2ccccc2)C(C)(C)C)cc1C	inactive
COc1ccc(C(=O)CC(=O)c2ccc(OC)cc2)cc1	inconclusive: 29.1 µM [cytotoxic, single point]
Cc1cccc(N2CCN(C(=O)C3CCN(S(=O)(=O)c4c(C)noc4C)CC3)CC2C)c1 (stereo not drawn)	inconclusive: 20.6 µM [cytotoxic, partial curve, poor fit] and inconclusive: 7.31 µM [cytotoxic, partial curve]
COc1ccc(C2=NN(C(=O)CCC(=O)O)C(c3ccc(OC)cc3)C2)cc1 (stereo not drawn)	inactive
C=CCC[C@@H](Cc1ccc(F)cc1)C(=O)OC[C@@H](Cc1c[nH]c2ccccc12)NC(=O)[C@@H](CC=C)CC(=O)N[C@@H](CO)Cc1ccccc1	inactive
CCCC(=O)N1CCC1(C)C(=O)NS(=O)(=O)c1cccc(Cl)c1 (stereo not drawn)	inactive
Cc1[nH]n(-c2cccc(Cl)c2)c(=O)c1-c1ccc(Cl)cc1	inconclusive: 29.1 µM [cytotoxic, single point]
COc1cccc(CNc2ncc(-c3ccccc3)n2C)c1	inconclusive: 20.6 µM [cytotoxic, single point]
O=C1c2ccccc2C(c2nnnn2-c2ccc3c(c2)OCCO3)N1Cc1ccco1 (stereo not drawn)	inconclusive: 10.3 µM [cytotoxic, partial curve]
Cc1ccc(Cl)cc1NC(=S)N(CCCN1CCN(C)CC1)Cc1ccco1	inconclusive: 14.6 µM [cytotoxic, partial curve]

Structure (SMILES)	Potency
Cc1cc(C)nc(SCC(=O)NNC(=O)c2cccs2)n1	inconclusive: 29.1 µM [cytotoxic, single point]
O=C(Cc1cccs1)N1CCN=C1SCc1ccc(Br)cc1	inconclusive: 29.1 µM [cytotoxic, single point]
O=C1C=C(Nc2cccc3cccnc23)c2ccccc2C1=O	active: 5.8 µM
Cc1ccc(C(C(=O)NC2CCCCC2)N(Cc2ccco2)C(=O)Cc2c[nH]c3ccccc23)o1 (stereo not drawn)	active: 10.3 µM
CCC(=O)Nc1ccccc1-c1nc2ccccc2n(CC(=O)Nc2ccccc2OC)c1=O	inconclusive: 23.1 µM [cytotoxic, single point]
C=C(C)C(=O)Nc1cccc(C2=NOC3(C2)C[C@H](C(N)=O)N(C(=O)CC#N)C3)c1 (stereo partly drawn)	inactive
CCN1/C(=C\C=C(C(C)=O)C(C)=O)Sc2ccccc21	inactive
COc1ccc(/C=C/c2ccc3ccccc3[n+]2C)c(OC)c1OC	inactive
Cc1c(C(=O)Nc2ccccc2)sc2nc(-c3cc4cc(Cl)ccc4oc3=O)[nH]c(=O)c12	inactive
CC(C(=O)NCC1CCCCC1)N(C)CC(=O)Nc1ccc(N2CCOCC2)cc1 (stereo not drawn)	inconclusive: 23.1 µM [cytotoxic, partial curve, poor fit]
CCc1ccccc1OCC(=O)Nc1nc(-c2cccnc2)cs1	inconclusive: 8.2 µM [cytotoxic, partial curve]
c1ccc(-c2cc(N3CCOCC3)nc3ccccc23)cc1	active: 20.6 µM
CCCCOc1ccc(-c2csc(N)n2)cc1[N+](=O)[O-]	inconclusive: 16.4 µM [cytotoxic, single point]
c1ccc(C[n+]2c(-c3ccccc3)csc2Nc2ccccc2)cc1	active: 16.4 µM
CCc1nn2cc(C(=O)c3cc(C)ccc3O)cnc2c1-c1ccc(F)cc1	inconclusive: 14.6 µM [cytotoxic, partial curve]
CCn1c2c(c(=O)n3ncc(C(=O)N4CCN(c5ccc(Cl)cc5)CC4)c13)CN(Cc1ccc(OC)cc1)CC2	inconclusive: 2.59 µM [cytotoxic, full curve]
O=C(Nc1cccc(-c2nc3ccccc3[nH]2)c1)c1ccco1	inconclusive: 29.1 µM [cytotoxic, single point]
Cc1cc2oc(=O)cc(Cn3ncc(Cl)c(Cl)c3=O)c2cc1Cl	inconclusive: 29.1 µM [cytotoxic, single point]
Cc1ccc(S(=O)(=O)NCC(=O)OCC(=O)Nc2cccc(S(=O)(=O)NC3=NCCCCC3)c2)cc1C	inactive
CCn1cc(C(=O)N2CCN(c3ccccc3)CC2)c(=O)c2cc(S(=O)(=O)N3CCOCC3)ccc21	inconclusive: 23.1 µM [rising, single point]
CCOc1ccc(C(=O)NCC2CCN(CC3CCCCC3)CC2)cc1	inconclusive: 2.31 µM [cytotoxic, partial curve]
Cc1ccc(C(=O)CSc2nnc(CNc3ccc(C)cc3C)n2Cc2ccco2)cc1	inconclusive: 29.1 µM [cytotoxic, single point]
